Experimental data as given in patent US20250275938A1, “COMPOSITIONS AND METHODS FOR TREATMENT OF CANCER” (SCIROSBIO (FZC), priority 2022, published 2025).

Key:
[1] = tested on: astrocytes isolated from the rat brain tissue; test: Glucose uptake assay, astrocytes isolated from the tumor tissue; assay type: in vivo; details: astrocytes from brain tissue of GB-bearing xenograft rats; i.p. 7 days
Description: In vivo glioma model generation, study design, group assignment, drug dose and other relevant information are disclosed in the Example-5. In brief, Wistar rats were anesthetized and using a stereotaxic head frame 1×10^6 C6 glioma cells was injected at right striatum. The rats were monitored daily for signs of distress and death. Treatment with drugs was commenced 20 days after orthotopic implantation of glioma cells. The same study samples in Example-5 used to analyse the anti-Warburg effect.
Primary astrocytes were collected from the isolated brain tissues as described by Schildge, et aL. (J. Vis. Exp. (71), e50079). In brief, the brain tissues of all experimental groups were isolated, immediately after decapitation. The minced tissue was dissociated using 0.05% trypsin at 37° C. for 30 min. To isolate individual astrocytes, the cell suspension was passed through 40 µm strainer. At last, astrocytes were seeded at a density of 1.5×10^5 cells/cm^2 in 90% DMEM containing 10% FBS, and 4.5 g/L glucose. The astrocytes were cultured at 37° C. with 95% air and 5% CO2.
(§1) Glucose uptake assay was performed using Glucose Uptake-Glo kit (Promega, USA). The assay was performed according to the manufacturer's protocol, for both the cell lines and astrocytes isolated from the rat brain tissue.

Ki67 = test: Immunohistochemistry of tumor sections, Ki67; assay type: in vivo, rat; details: i.p. 7 days; tumor-control 36.73%
Description: Immunohistochemistry. For immunohistochemistry (IHC) analysis, 4 μm thick tissue sections were deparaffinized in xylene and hydrated by immersing in a series of graded ethanol concentration (100%, 95%, 75% and 50%). Endogenous peroxidase activity was blocked by incubating sections in 3% H2O2 solution prepared in methanol at room temperature for 10 minutes and were washed with PBS twice for 5 minutes each. Antigen retrieval was performed by immersing the slides in 300 ml of retrieval buffer (10 mM citrate buffer, pH 6.0) for one hour at 100° C. and were rinsed twice in PBS. Sections were then incubated with approximately 100 μl diluted primary antibodies of Ki67 (1:100 dilution, Elabscience, Wuhan, China) and Vascular Endothelial Growth Factor (VEGF) (1:100 dilution, Elabscience, Wuhan, China) for 30 minutes at room temperature. The slides were then washed twice with PBS and were then incubated with approximately 100 μl of diluted secondary antibody (Cat No. E-IR-R213, Elabscience, Wuhan, China) at room temperature for 30 minutes. Slides were then washed in PBS for 5 minutes, followed by incubation with approximately 100 μl diluted Horse Radish Peroxidase (HRP) conjugate for 30 minutes. […] The staining intensities were quantified using IHC Profiler, a plugin in ImageJ software, to determine the H-score (Histo score).

[2] = tested on: human hepatocellular carcinoma (HepG2) cells; test: MTT cell viability assay, HepG2; assay type: cell-based; details: 24 hours
Description: Cell lines and culture conditions. A human hepatocellular carcinoma (HepG2) and ovarian cancer (SKOV3) cells were obtained from National Centre for Cell Science (NCCS), Pune, India. The cells HepG2 and SKOV3 were sub-cultured in Eagle's Minimum Essential Medium (EMEM) and McCoy's 5a supplemented with 10% FBS at 5% CO2 and 37° C. At 85% confluence, the cells were harvested using 0.25% trypsin and seeded in 25 cm^2 flasks, 96 well, and 6-well plates, according to the experiment being performed. The cells were allowed to attach 70% to the surface prior to treatment. A stock solution of all the drugs (10 mg/ml) was made in distilled H2O and diluted to the required concentrations. Suspensions were aspirated 10 times before treatment. Cells treated with vehicle control were used as a control.
Cell viability assay. HepG2 and SKOV3 cells (5×10^3 cells/ml) were seeded in 96-well plates and exposed to different individual-drug treated groups with varying concentrations (0, 10, 40, 80, 120, and 160 μM) for a period of 24 hours. The individual-treated groups include Group I: SOR/CPL-treated HepG2 and SKOV3 cells respectively; Group II: MET-treated HepG2 and SKOV3 cells; Group III: EGCG-treated HepG2 and SKOV3 cells and Group IV: SOR+MET+EGCG and CPL+MET+EGCG treated HepG2 and SKOV3 cells respectively.

C6 rat GB cell line = test: Glucose uptake assay, C6; assay type: cell-based
Description: (§2) Human GB cell line, U-87 MG and rat glioma cell line C6 were obtained from National Centre for Cell Science (NCCS), Pune, India. The cells were sub-cultured in Dulbecco's Modified Eagle's Medium (DMEM) supplemented with 10% FBS at 5% CO2 and 37° C. On reaching 85% confluence, the cells were harvested using 0.25% trypsin and used accordingly. For the treatment, the stock solution (10 mM) of each drug (Temozolomide (T), metformin (M), epigallocatechin gallate (E)) was made with sterile water and were further diluted using serum-free medium to arrive at the required concentrations. Suspensions were aspirated 10 times before treatment. Cells treated with vehicle control were used as a control.
as §1

[3] = tested on: U-87 MG Human GB cell line; test: Glucose uptake assay, U-87 MG; assay type: cell-based
Description: as §2, §1

[4] = tested on: HEK293T (Human Embryonic Kidney) cells; test: Trypan blue exclusion cytotoxicity on normal cell line; assay type: cell-based; details: treated at IC50 values determined in U87MG and C6, 24 hours
Description: Cytotoxicity on a normal cell line.
Furthermore, to check for the cytotoxicity of the drugs, a trypan blue dye exclusion assay was performed on a normal cell line, HEK293T, using the IC50 values of each drug, individually and in combination, as determined in U87MG and C6 cells and shown in Table 2.

rat brain tissue = test: Western blotting and ELISA of brain tissue proteins; assay type: in vivo; details: i.p. 7 days
Description: Cell lysis and protein quantification. For protein isolation, 500 mg of brain tissues of all the experimental groups were washed with 0.9% NaCl, 5 times each, to remove contaminated blood and was fully grilled in liquid nitrogen. Two ml of RIPA protein extraction buffer (20 mM Tris-HCl (pH 7.5), 150 mM NaCl, 1 mM sodium ethylenediamine tetra acetate (EDTA), 1 mM EDTA, 1% NP-40, 1% sodium deoxycholate, 2.5 mM sodium pyrophosphate, 1 mM β-glycerophosphate, 1 mM Na3VO4, 1 μg/ml leupeptin) was added to the brain tissues, crushed and then centrifuged at 12000×g for 15 minutes at 40° C. The lysates were then collected, centrifuged again at 12000×g for 15 minutes at 40° C. The protein extract collected as a supernatant was then quantified using Bradford method.
Western blotting. Following quantification, 40-100 μg of the total protein were separated by sodium dodecyl sulphate polyacrylamide gel electrophoresis (SDS-PAGE) and then transferred onto polyvinylidene difluoride (PVDF) membrane (Millipore, Germany) by the wet transfer method. […] Each immune complex was detected by Enhanced Chemiluminescence (ECL) Substrate (Santa Cruz, Texas, USA) and was visualized by the Chem-doc (Pearl® Trilogy/LI-COR, USA). Quantitative analysis for Western blot was made by ImageJ® software. […]

CN(C)C(=N)NC(=N)N.Cl [MET, 3-(diaminomethylidene)-1,1-dimethylguanidine; hydrochloride]
glucose uptake [1]: reduced glucose uptake significantly
Ki67 nuclear positivity rate (Ki67): 18.36%
cell viability (MTT), in words [2]: reduction in cell viability in a dose-dependent fashion
glucose uptake (C6 rat GB cell line): reduced glucose uptake significantly
glucose uptake [3]: reduced glucose uptake significantly
toxicity in normal HEK293T cells [4]: significant reduction in toxicity
levels of pAKT1 (rat brain tissue): significantly reduced
levels of pmTOR (rat brain tissue): significantly reduced
